Measured values from patent publication US20210322508A1, “PEPTIDES AND COMPOSITIONS FOR TARGETED TREATMENT AND IMAGING” (SIGNABLOK, INC., priority 2018, published 2021).
Entries after “also recorded” stand apart in the source; their conditions may differ. Part of at least one peptide drawing is inferred or uncertain, most often the ends. Some of these results come from one statement about several compounds together. Residues, ends and D or L forms follow the SMILES beside them.

Legend:
[1] = test system: AsPC-1, BxPC-3 and Capan-1 xenograft tumors; assay: Human PC xenograft mouse models: tumor growth, survival, tolerability; assay type: in vivo
Procedure: (§1) Mice were monitored daily and tumor measurements were taken along the length and width using Vernier calipers twice weekly until sacrifice. Tumor volumes were calculated using a modified ellipsoidal formula: (Length×Width^2)/2.
Results are expressed as the mean±SEM.
as §1
Mice were monitored daily and tumor measurements were taken along the length and width using Vernier calipers twice weekly until sacrifice.

[2] = test system: C57BL/6J neonatal mice with oxygen-induced retinopathy; assay: Oxygen-induced retinopathy (OIR): pathological retinal neovascularization; assay type: in vivo; conditions: free and SLP-bound form; daily i.p. P7-P17
Procedure: Litters of C57BL/6J (Jackson Laboratory, Bar Harbor, Me.) neonatal mice and nursing dams were exposed to a hyperoxia environment (75% oxygen) from postnatal day 7 (P7) to P12 and returned to normoxia until P17. The hyperoxia exposure causes degeneration of the immature retinal vessels. […] Beginning on P7, mice were treated until day P17 by daily i.p. injections of GF9, GF9-SLP, TREM-1/TRIOPEP-sSLP or vehicle (phosphate-buffered saline, pH 7.4; PBS). […] In another subset of experiments, rho B-labeled Gd-containing sSLP were used to confirm the ability of these targeted SLP to cross the BRB in other species (rats and rabbits). In another subset of experiments, neonatal mice and nursing dams were not subjected to a hyperoxia environment and reared in room air (RA). […]
Treatment effects on vaso-obliteration and pathological angiogenesis were assessed by morphometric analysis of the avascular and neovascularization areas in retinal flat mounts after labeling with isolectin B4 as described in Patel, et al. Am J Pathol 2014, 184:3040-3051. […] After washing 3 times with PBS, the images were captured with a 20× lens using a Zeiss Axioplan2 fluorescence microscope (Carl Zeiss Meditec, Inc., Dublin, Calif.). Intravitreal neovascular formation and avascular area were measured as described in Connor, et al. Nat Protoc 2009, 4:1565-1573. […]

[3] = test system: LPS-stimulated macrophages; assay: cytokine production by LPS-stimulated macrophages; assay type: cell-based, murine; conditions: free GF9 or GF9 in LPC
Procedure: FIG. 33 presents exemplary data showing cytokine production by LPS-stimulated macrophages incubated for 24 h at 37° C. with GF9, G-TE21, G-HV21 and G-KV21 in the presence of HDL.

[4] = test system: mice with oxygen-induced retinopathy (OIR); assay: oxygen-induced retinopathy (OIR) in mice; assay type: in vivo
Description: The membrane was probed for TREM-1, reprobed for CSF1 and then for β-actin.

[5] = test system: human pancreatic cancer PANC-1 xenograft; assay: PANC-1 xenograft mouse model, standalone and with GEM+ABX chemotherapy; assay type: in vivo
Procedure: Mice were implanted subcutaneously into the right flank with PANC-1 cells in equal parts of serum-free growth medium and Matrigel. Mice were monitored daily and tumor measurements were taken along the length and width using Vernier calipers twice weekly until sacrifice. Tumor volumes were calculated using a modified ellipsoidal formula: (Length×Width^2)/2. […] Body weight were measured. Mean tumor volumes were calculated. […] Survival was evaluated using Kaplan-Meier survival curves.

CC(C)C[C@H](NC(=O)[C@H](Cc1ccccc1)NC(=O)CN)C(=O)N[C@@H](CO)C(=O)N[C@@H](CCCCN)C(=O)N[C@@H](CO)C(=O)N[C@@H](CC(C)C)C(=O)N[C@H](C(=O)N[C@@H](Cc1ccccc1)C(=O)O)C(C)C [GF9] (H-GFLSKSLVF-OH)
tumor growth ([1]; 2.5 mg/kg daily): did not affect tumor growth
tumor growth ([1]; free or HDL/SLP-bound form, dose not restated): inhibit tumor growth in three human PC xenograft mouse models
reduction of pathological RNV [2]: up to 95%
cytokine release in vitro [3]: inhibits cytokine release
pathological retinal neovascularization (RNV) ([4]; 25 mg/kg GF9, 2.5 mg/kg GF9-sSLP, 4 mg/kg GA/E31-sSLP where stated): prevents retinal neovascularization
retinal tissue expression of TREM-1 and CSF-1 (M-CSF) ([4]; P17, Western blot): significantly reduces tissue expression; also recorded: reduces TREM-1 and M-CSF overexpression; also recorded: reduction of tissue expression levels of TREM-1 and CSF-1
tumor growth, standalone treatment ([5]; 2.5 mg/kg i.p. 5qw, 28 days, compared with 100 mg/kg GEM + 10 mg/kg ABX): inhibits tumor growth as effective as chemotherapy
tumor growth, combined with GEM+ABX chemotherapy ([5]; GEM+ABX days 1, 4, 8, 11, 15): sensitizes the tumor to chemotherapy
